Results as given in the supplement of paper PMC10849652.
The other results are listed elsewhere or left out.

Chains of the proteins cited; added tags and fusions are not shown. Lines headed by an entry give the natural chain unless they say otherwise; changes in a name come on top.
UniProt Q6NXR4: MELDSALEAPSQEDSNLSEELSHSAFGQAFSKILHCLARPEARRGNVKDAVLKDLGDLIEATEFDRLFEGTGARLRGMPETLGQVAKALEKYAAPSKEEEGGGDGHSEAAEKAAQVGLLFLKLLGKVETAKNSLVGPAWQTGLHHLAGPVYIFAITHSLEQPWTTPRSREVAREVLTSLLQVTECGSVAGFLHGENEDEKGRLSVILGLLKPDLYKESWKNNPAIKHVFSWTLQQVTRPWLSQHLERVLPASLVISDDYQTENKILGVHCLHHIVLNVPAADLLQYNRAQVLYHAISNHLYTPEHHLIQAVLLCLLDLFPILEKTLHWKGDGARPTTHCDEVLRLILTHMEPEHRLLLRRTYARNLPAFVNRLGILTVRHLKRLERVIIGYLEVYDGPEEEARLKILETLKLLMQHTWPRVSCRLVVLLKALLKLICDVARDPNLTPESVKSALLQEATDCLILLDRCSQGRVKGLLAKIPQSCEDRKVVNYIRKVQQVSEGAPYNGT
UniProt Q6PID6, whole entry, looked up: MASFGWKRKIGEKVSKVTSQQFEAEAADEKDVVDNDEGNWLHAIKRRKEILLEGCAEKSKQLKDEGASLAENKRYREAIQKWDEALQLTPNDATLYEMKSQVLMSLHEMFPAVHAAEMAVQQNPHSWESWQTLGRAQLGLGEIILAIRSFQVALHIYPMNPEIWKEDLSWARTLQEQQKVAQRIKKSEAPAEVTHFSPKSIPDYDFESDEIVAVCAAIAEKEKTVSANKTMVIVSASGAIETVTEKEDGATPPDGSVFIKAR
UniProt Q2NL82: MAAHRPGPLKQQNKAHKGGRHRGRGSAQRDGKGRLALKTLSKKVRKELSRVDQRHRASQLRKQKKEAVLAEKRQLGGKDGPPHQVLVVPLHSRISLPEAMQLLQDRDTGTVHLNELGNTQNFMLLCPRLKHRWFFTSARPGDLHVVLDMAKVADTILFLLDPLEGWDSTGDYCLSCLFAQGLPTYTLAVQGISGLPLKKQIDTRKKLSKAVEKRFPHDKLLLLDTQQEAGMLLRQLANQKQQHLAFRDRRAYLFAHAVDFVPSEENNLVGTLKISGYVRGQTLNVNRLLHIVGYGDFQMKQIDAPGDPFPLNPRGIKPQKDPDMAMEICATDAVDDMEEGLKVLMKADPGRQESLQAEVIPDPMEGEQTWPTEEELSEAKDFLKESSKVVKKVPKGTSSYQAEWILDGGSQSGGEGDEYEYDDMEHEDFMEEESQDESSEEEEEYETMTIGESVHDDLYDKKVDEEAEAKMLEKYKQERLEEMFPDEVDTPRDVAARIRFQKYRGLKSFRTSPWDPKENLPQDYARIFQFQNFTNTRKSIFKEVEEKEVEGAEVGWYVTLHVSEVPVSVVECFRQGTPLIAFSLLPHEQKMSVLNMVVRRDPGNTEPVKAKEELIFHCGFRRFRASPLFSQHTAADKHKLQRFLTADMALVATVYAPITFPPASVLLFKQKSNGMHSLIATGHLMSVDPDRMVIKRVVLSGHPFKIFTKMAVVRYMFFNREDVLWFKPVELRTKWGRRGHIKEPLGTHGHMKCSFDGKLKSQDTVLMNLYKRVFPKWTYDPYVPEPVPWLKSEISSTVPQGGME
UniProt Q9NX07: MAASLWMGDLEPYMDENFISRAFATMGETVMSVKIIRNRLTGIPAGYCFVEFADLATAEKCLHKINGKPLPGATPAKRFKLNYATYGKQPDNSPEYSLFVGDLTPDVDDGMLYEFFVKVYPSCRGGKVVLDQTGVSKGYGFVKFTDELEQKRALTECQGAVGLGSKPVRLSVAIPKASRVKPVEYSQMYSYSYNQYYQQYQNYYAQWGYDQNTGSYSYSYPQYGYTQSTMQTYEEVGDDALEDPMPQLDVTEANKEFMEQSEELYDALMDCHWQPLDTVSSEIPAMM
UniProt Q15645: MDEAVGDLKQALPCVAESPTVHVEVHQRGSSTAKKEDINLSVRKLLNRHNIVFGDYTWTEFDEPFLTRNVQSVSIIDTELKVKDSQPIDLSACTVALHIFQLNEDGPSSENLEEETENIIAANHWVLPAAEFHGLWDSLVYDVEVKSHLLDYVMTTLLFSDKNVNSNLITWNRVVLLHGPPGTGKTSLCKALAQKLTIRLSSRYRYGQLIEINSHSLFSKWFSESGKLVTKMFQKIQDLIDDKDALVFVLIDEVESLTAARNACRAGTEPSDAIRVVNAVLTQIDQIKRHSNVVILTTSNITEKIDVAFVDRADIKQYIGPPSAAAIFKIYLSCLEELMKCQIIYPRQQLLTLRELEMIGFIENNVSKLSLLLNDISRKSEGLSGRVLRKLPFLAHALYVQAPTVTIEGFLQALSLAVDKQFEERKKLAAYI
UniProt Q9Y2L5: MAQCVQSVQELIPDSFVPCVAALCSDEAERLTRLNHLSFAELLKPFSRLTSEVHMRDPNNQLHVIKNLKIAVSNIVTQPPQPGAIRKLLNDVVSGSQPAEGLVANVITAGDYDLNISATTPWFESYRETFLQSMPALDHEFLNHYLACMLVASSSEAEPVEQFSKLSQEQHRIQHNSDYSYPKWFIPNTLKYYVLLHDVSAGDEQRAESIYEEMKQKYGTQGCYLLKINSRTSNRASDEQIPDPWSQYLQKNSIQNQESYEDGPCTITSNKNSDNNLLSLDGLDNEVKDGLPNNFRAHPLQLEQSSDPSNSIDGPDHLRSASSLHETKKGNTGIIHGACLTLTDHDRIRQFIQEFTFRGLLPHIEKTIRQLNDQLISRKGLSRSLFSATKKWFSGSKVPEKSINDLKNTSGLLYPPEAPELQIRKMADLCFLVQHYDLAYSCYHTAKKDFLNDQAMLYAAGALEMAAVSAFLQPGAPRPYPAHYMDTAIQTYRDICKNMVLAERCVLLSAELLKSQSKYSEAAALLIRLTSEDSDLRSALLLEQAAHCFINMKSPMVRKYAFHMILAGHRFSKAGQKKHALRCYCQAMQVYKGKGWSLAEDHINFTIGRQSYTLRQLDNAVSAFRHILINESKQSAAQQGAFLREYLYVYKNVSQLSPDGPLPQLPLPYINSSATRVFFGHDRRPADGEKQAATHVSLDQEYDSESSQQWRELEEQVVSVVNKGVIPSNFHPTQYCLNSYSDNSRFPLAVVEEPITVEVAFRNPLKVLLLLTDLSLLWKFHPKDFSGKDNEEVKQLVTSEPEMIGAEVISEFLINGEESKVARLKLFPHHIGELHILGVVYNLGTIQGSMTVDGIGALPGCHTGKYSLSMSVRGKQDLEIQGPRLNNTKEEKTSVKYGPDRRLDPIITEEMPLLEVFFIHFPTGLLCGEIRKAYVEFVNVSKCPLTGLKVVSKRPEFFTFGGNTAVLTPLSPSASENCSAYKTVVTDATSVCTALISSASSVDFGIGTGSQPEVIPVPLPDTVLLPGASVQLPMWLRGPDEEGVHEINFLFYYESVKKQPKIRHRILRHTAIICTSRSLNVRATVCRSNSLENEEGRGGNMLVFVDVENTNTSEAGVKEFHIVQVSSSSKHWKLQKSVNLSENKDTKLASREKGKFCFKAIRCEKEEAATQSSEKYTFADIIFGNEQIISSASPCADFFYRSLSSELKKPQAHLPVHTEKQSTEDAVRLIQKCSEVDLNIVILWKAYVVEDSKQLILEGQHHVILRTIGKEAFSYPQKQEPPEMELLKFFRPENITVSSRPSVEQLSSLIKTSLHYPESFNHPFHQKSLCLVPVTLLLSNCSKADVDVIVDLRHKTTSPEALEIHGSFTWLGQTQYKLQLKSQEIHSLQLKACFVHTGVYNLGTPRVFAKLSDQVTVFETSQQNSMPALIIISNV
UniProt Q14166: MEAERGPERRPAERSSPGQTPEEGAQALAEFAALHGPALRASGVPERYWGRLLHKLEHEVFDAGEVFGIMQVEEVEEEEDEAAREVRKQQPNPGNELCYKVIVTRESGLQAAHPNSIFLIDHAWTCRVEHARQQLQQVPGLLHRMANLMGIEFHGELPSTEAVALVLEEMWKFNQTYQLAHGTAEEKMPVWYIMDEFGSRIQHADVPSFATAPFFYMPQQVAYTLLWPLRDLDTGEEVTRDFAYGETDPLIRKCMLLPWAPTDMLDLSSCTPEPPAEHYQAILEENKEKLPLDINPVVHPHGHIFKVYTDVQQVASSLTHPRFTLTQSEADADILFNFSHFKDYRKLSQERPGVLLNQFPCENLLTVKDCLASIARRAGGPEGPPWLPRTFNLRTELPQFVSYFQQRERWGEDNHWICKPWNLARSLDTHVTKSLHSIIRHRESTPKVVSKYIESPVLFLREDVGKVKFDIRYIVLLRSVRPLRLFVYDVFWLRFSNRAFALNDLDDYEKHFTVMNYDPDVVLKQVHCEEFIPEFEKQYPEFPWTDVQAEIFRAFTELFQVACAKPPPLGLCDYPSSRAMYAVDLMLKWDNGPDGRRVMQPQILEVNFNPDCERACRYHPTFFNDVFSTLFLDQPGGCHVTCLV
UniProt Q7Z392: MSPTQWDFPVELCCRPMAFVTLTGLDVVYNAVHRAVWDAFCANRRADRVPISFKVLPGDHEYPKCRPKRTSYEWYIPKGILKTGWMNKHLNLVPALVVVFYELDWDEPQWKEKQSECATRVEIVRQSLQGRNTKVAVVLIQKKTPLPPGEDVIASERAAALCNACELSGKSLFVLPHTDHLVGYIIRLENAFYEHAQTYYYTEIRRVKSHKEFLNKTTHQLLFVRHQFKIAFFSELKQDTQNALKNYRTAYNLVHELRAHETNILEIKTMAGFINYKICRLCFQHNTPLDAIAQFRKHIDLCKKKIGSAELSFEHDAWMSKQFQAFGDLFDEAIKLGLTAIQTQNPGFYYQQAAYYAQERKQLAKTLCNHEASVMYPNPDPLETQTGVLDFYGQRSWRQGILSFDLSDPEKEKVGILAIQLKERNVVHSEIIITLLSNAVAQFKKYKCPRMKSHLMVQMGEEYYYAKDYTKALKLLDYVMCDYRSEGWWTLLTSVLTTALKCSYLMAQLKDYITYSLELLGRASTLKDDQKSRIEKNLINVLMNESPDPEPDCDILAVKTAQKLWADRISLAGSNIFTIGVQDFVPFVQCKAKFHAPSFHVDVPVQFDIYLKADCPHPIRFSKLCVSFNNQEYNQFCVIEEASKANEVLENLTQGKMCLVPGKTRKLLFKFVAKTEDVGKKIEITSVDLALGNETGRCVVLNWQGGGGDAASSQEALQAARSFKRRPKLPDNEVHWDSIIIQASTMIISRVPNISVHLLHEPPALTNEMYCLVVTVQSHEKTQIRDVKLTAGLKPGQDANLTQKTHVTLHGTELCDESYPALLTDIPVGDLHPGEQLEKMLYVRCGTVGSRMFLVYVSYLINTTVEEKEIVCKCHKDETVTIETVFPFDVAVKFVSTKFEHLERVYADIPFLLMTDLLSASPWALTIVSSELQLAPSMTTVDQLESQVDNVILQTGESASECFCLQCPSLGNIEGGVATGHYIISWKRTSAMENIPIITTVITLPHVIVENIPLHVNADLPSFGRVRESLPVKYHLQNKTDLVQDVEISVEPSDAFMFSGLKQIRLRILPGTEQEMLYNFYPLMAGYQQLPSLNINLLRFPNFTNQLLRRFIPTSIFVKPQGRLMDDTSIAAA
UniProt Q9C037: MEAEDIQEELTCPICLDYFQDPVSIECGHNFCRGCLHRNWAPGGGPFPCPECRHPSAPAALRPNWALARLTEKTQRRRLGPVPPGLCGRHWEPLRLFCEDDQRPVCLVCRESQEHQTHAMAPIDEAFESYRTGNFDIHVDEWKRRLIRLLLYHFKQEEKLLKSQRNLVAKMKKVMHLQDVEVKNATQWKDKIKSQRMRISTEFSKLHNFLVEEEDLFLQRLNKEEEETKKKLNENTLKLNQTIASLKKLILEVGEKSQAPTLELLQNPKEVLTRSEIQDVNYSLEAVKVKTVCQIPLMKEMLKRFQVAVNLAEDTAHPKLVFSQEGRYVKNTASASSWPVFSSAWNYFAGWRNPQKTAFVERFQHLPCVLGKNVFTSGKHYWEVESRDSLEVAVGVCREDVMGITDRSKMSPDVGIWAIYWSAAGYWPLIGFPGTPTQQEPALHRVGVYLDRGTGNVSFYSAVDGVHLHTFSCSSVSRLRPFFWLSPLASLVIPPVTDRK
UniProt Q9BQ61: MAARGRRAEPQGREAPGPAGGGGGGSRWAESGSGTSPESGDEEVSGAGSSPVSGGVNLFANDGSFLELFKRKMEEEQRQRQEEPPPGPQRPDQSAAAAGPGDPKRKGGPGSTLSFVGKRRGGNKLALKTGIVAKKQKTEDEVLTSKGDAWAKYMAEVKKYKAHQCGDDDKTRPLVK
UniProt Q9Y296, whole entry, looked up: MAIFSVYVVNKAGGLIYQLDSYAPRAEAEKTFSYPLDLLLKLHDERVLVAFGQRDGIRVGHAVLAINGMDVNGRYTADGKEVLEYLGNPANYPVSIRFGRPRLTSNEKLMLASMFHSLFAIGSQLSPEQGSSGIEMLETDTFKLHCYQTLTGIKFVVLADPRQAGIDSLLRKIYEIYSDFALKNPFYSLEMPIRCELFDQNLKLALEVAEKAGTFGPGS
UniProt Q8N5M4: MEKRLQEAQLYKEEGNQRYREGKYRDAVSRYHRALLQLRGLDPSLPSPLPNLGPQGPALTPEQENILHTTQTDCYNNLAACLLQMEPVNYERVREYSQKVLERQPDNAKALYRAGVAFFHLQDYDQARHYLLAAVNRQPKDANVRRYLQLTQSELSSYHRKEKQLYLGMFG

Key:
Experiment in all cases: log2 fold change, soluble protein after heating vs DMSO (PISA); higher = thermal stabilisation; K562 lysate, 10 uM; active = over 0.2 and 3.5 SD of the protein, either way, in both replicates (recomputed)
alvocidib = compound: CN1CC[C@H](c2c(O)cc(O)c3c(=O)cc(-c4ccccc4Cl)oc23)[C@H](O)C1 [alvocidib]
Summary of the method: (§1)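 Soluble protein was defined as the supernatant remaining after 21,000xg for 90 min, following pooling of heated aliquots and adjustment to 0.5% NP-40 at 4°C. Before that, crude K562 extract at 1 mg/mL protein in PBS pH 7.4 with 1 mM MgCl2 was treated with 10 μM compound for 30 min and heated for 3 min across 48°C-58°C. Quantification used TMTpro 16plex LC-MS/MS with channel sums equalised, and values are log-two fold changes in thermal stability relative to solvent controls from duplicates.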

Tubastatin A = compound: CN1CCc2c(c3ccccc3n2Cc2ccc(C(=O)NO)cc2)C1 [Tubastatin A]
Summary of the method: as §1

[1] = compound: CNC(=O)C1=CC=CC=C1NC2=NC(=NC=C2Cl)NC3=C(C=C(C=C3)N4CCOCC4)OC
Summary of the method: as §1

defactinib = compound: CNC(=O)c1ccc(Nc2ncc(C(F)(F)F)c(NCc3nccnc3N(C)S(C)(=O)=O)n2)cc1 [defactinib]
Summary of the method: as §1

[2] = compound: CNc1nc(-c2ccc3c(N)n[nH]c3c2)cc(N2C[C@@H](C(=O)NC3CCCCC3)CC[C@H]2C)n1
Summary of the method: as §1

encorafenib = compound: COC(=O)N[C@@H](C)CNc1nccc(-c2cn(C(C)C)nc2-c2cc(Cl)cc(NS(C)(=O)=O)c2F)n1 [encorafenib]
Summary of the method: as §1

[3] = compound: COC(=O)[C@H](CCSC)NC(=O)C1=C(C=C(C=C1)NC[C@H](CS)N)C2=CC=CC=C2
Summary of the method: as §1

alisertib = compound: COc1cc(Nc2ncc3c(n2)-c2ccc(Cl)cc2C(c2c(F)cccc2OC)=NC3)ccc1C(=O)O [alisertib]
Summary of the method: as §1

[4] = compound: COc1cc2nc(-c3cc(F)ccc3O)nc(N[C@@H]3CNC[C@H]3C(C)(C)O)c2cc1OC
Summary of the method: as §1

gefitinib = compound: COc1cc2ncnc(Nc3ccc(F)c(Cl)c3)c2cc1OCCCN1CCOCC1 [gefitinib]
Summary of the method: as §1

lapatinib = compound: CS(=O)(=O)CCNCc1ccc(-c2ccc3ncnc(Nc4ccc(OCc5cccc(F)c5)c(Cl)c4)c3c2)o1 [lapatinib]
Summary of the method: as §1

pictilisib = compound: CS(=O)(=O)N1CCN(Cc2cc3nc(-c4cccc5[nH]ncc45)nc(N4CCOCC4)c3s2)CC1 [pictilisib]
Summary of the method: as §1

crizotinib = compound: C[C@@H](Oc1cc(-c2cnn(C3CCNCC3)c2)cnc1N)c1c(Cl)ccc(F)c1Cl [crizotinib]
Summary of the method: as §1

[5] = compound: C[C@H](C1=CC=C(C=C1)C(=O)NC2=C3C=CNC3=NC=C2)N
Summary of the method: as §1

duvelisib = compound: C[C@H](Nc1ncnc2nc[nH]c12)c1cc2cccc(Cl)c2c(=O)n1-c1ccccc1 [duvelisib]
Summary of the method: as §1

gandotinib = compound: Cc1cc(Nc2cc(CN3CCOCC3)c3nc(C)c(Cc4ccc(Cl)cc4F)n3n2)n[nH]1 [gandotinib]
Summary of the method: as §1

tozasertib = compound: Cc1cc(Nc2cc(N3CCN(C)CC3)nc(Sc3ccc(NC(=O)C4CC4)cc3)n2)n[nH]1 [tozasertib]
Summary of the method: as §1

doramapimod = compound: Cc1ccc(-n2nc(C(C)(C)C)cc2NC(=O)Nc2ccc(OCCN3CCOCC3)c3ccccc23)cc1 [doramapimod]
Summary of the method: as §1

bafetinib = compound: Cc1ccc(NC(=O)c2ccc(CN3CC[C@H](N(C)C)C3)c(C(F)(F)F)c2)cc1Nc1nccc(-c2cncnc2)n1 [bafetinib]
Summary of the method: as §1

[6] = compound: Cc1cccc(CC(=O)N2CCc3c2ccc(-c2cn(C)c4ncnc(N)c24)c3F)n1
Summary of the method: as §1

Measured: log2 fold change

TSEN54 (UniProt Q7Z6J9)
inactive: alvocidib -0.052 | Tubastatin A -0.155 | [1] 0.001 | defactinib -0.026 | [2] -0.029 | encorafenib 0.01 | [3] 0.138 | alisertib -0.02 | [4] 0.02 | gefitinib -0.266 | lapatinib 0.008 | pictilisib -0.064 | crizotinib -0.135 | [5] 0.03 | duvelisib -0.03 | gandotinib 0.031 | tozasertib -0.011 | doramapimod 0.016 | bafetinib -0.008 | [6] 0.086

TTI2 (UniProt Q6NXR4)
inactive: alvocidib -0.006 | Tubastatin A -0.081 | [1] 0.03 | defactinib 0.069 | [2] 0.006 | encorafenib 0.072 | [3] 0.015 | alisertib 0.004 | [4] 0.024 | gefitinib -0.034 | lapatinib -0.033 | pictilisib -0.033 | crizotinib -0.016 | [5] -0.032 | duvelisib -0.018 | gandotinib -0.023 | tozasertib 0.004 | doramapimod -0.023 | bafetinib -0.017 | [6] 0.082

TRMT6 (UniProt Q9UJA5)
inactive: alvocidib 0.011 | Tubastatin A -0.005 | [1] -0.02 | defactinib 0.007 | [2] -0.019 | encorafenib 0.018 | [3] 0.03 | alisertib 0.029 | [4] 0.015 | gefitinib -0.046 | lapatinib -0.01 | pictilisib 0.009 | crizotinib 0.004 | [5] -0.026 | duvelisib -0.003 | gandotinib 0.035 | tozasertib 0.02 | doramapimod -0.044 | bafetinib -0.014 | [6] 0.026

TSPO (UniProt P30536)
inactive: alvocidib -0.026 | Tubastatin A -0.091 | [1] -0.012 | defactinib 0.001 | [2] 0.05 | encorafenib 0.005 | [3] 0.051 | alisertib -0.005 | [4] -0.017 | gefitinib 0.05 | lapatinib -0.019 | pictilisib 0.021 | crizotinib 0.014 | [5] -0.142 | duvelisib 0 | gandotinib 0.096 | tozasertib -0.086 | doramapimod 0.089 | bafetinib -0.057 | [6] 0.012

TTC33 (UniProt Q6PID6)
inactive: alvocidib 0.043 | Tubastatin A -0.038 | [1] 0.1 | defactinib -0.041 | [2] -0.024 | encorafenib 0.034 | [3] 0.036 | alisertib -0.054 | [4] 0.001 | gefitinib -0.399 | lapatinib 0.028 | pictilisib -0.067 | crizotinib -0.021 | [5] 0.065 | duvelisib -0.005 | gandotinib -0.13 | tozasertib 0.024 | doramapimod 0.028 | bafetinib -0.029 | [6] 0.011

TTC38 (UniProt Q5R3I4)
inactive: alvocidib 0.121 | Tubastatin A -0.013 | [1] 0.004 | defactinib 0.001 | [2] 0.034 | encorafenib -0.045 | [3] 0.013 | alisertib -0.046 | [4] -0.018 | gefitinib -0.069 | lapatinib -0.034 | pictilisib -0.029 | crizotinib 0.031 | [5] 0.213 | duvelisib -0.022 | gandotinib -0.116 | tozasertib -0.011 | bafetinib 0.065 | [6] -0.186
active: doramapimod 0.301

TSR1 (UniProt Q2NL82)
inactive: alvocidib 0.044 | Tubastatin A -0.077 | [1] 0.018 | defactinib 0.034 | [2] -0.02 | encorafenib 0.015 | [3] 0.121 | alisertib -0.019 | [4] -0.003 | gefitinib -0.049 | lapatinib -0.009 | pictilisib -0.004 | crizotinib -0.032 | [5] 0.067 | duvelisib 0.015 | gandotinib -0.059 | tozasertib 0.003 | doramapimod -0.001 | bafetinib -0.046 | [6] -0.074

Random excerpt: 2 entries already listed
TTI2 (UniProt Q6NXR4)
inactive: alvocidib -0.006 | Tubastatin A -0.081 | [1] 0.03 | defactinib 0.069 | [2] 0.006 | encorafenib 0.072 | [3] 0.015 | alisertib 0.004 | [4] 0.024 | gefitinib -0.034 | lapatinib -0.033 | pictilisib -0.033 | crizotinib -0.016 | [5] -0.032 | duvelisib -0.018 | gandotinib -0.023 | tozasertib 0.004 | doramapimod -0.023 | bafetinib -0.017 | [6] 0.082

TSR1 (UniProt Q2NL82)
inactive: alvocidib 0.044 | Tubastatin A -0.077 | [1] 0.018 | defactinib 0.034 | [2] -0.02 | encorafenib 0.015 | [3] 0.121 | alisertib -0.019 | [4] -0.003 | gefitinib -0.049 | lapatinib -0.009 | pictilisib -0.004 | crizotinib -0.032 | [5] 0.067 | duvelisib 0.015 | gandotinib -0.059 | tozasertib 0.003 | doramapimod -0.001 | bafetinib -0.046 | [6] -0.074

(cont.)

TRNAU1AP (UniProt Q9NX07)
inactive: alvocidib -0.059 | Tubastatin A -0.08 | [1] 0.015 | defactinib -0.192 | [2] -0.039 | encorafenib 0.045 | [3] 0.034 | alisertib 0.098 | [4] -0.007 | gefitinib -0.019 | lapatinib 0 | pictilisib -0.091 | crizotinib -0.019 | [5] -0.221 | duvelisib -0.058 | gandotinib 0.042 | tozasertib -0.018 | doramapimod 0.031 | bafetinib -0.001 | [6] 0.061

TRIP13 (UniProt Q15645)
inactive: alvocidib 0.018 | Tubastatin A -0.159 | [1] 0.014 | defactinib 0.07 | [2] -0.049 | encorafenib 0.03 | [3] 0.114 | alisertib 0 | [4] 0.014 | gefitinib -0.036 | lapatinib -0.015 | pictilisib 0.014 | crizotinib -0.028 | [5] 0.039 | duvelisib -0.01 | gandotinib -0.187 | tozasertib 0.005 | doramapimod 0.026 | bafetinib -0.029 | [6] -0.045

TRAPPC8 (UniProt Q9Y2L5)
inactive: alvocidib 0.013 | Tubastatin A -0.093 | [1] 0.028 | defactinib -0.001 | [2] 0.018 | encorafenib 0.002 | [3] 0.024 | alisertib -0.012 | [4] 0.016 | gefitinib -0.047 | lapatinib -0.012 | pictilisib -0.022 | crizotinib -0.014 | [5] -0.002 | duvelisib -0.025 | gandotinib -0.011 | tozasertib -0.016 | doramapimod 0.031 | bafetinib -0.016 | [6] 0.006

TTLL12 (UniProt Q14166)
inactive: alvocidib 0.039 | Tubastatin A -0.212 | [1] -0.003 | defactinib 0.018 | [2] -0.03 | encorafenib -0.009 | [3] 0.032 | alisertib 0 | [4] 0.003 | gefitinib 0.039 | lapatinib -0.002 | pictilisib -0.02 | crizotinib -0.039 | [5] 0.014 | duvelisib 0.015 | gandotinib -0.091 | tozasertib 0.023 | doramapimod 0.016 | bafetinib -0.004 | [6] 0.014

TRAPPC11 (UniProt Q7Z392)
inactive: alvocidib -0.018 | Tubastatin A -0.05 | [1] -0.004 | defactinib -0.011 | [2] -0.034 | encorafenib 0.013 | [3] 0.002 | alisertib -0.047 | [4] 0.001 | gefitinib 0.036 | lapatinib -0.025 | pictilisib 0.009 | crizotinib -0.019 | [5] -0.059 | duvelisib -0.029 | gandotinib 0.017 | tozasertib -0.017 | doramapimod 0.033 | bafetinib -0.042 | [6] 0.036

TRIM4 (UniProt Q9C037)
inactive: alvocidib -0.02 | Tubastatin A -0.18 | [1] 0.282 | defactinib -0.112 | [2] -0.013 | encorafenib 0.041 | [3] -0.049 | alisertib 0.014 | [4] 0.048 | gefitinib -0.025 | lapatinib -0.061 | pictilisib 0.042 | crizotinib -0.076 | [5] 0.049 | duvelisib -0.049 | gandotinib -0.063 | tozasertib -0.004 | doramapimod -0.017 | bafetinib -0.215 | [6] 0.253

TRIR (UniProt Q9BQ61)
inactive: alvocidib -0.021 | Tubastatin A 0.054 | [1] -0.004 | defactinib -0.027 | [2] 0.019 | encorafenib -0.042 | [3] -0.021 | alisertib -0.017 | [4] -0.004 | gefitinib -0.038 | lapatinib 0.028 | pictilisib 0.017 | crizotinib 0.058 | [5] -0.057 | duvelisib 0.004 | gandotinib 0.055 | tozasertib 0.031 | doramapimod 0 | bafetinib 0.012 | [6] 0.028

TRAPPC4 (UniProt Q9Y296)
inactive: alvocidib 0.007 | Tubastatin A -0.011 | [1] 0.012 | defactinib -0.019 | [2] -0.031 | encorafenib 0.048 | [3] 0.011 | alisertib -0.029 | [4] -0.025 | gefitinib 0.017 | lapatinib 0.009 | pictilisib -0.042 | crizotinib -0.009 | [5] 0.047 | duvelisib -0.008 | gandotinib -0.173 | tozasertib 0.044 | doramapimod 0.023 | bafetinib 0.042 | [6] -0.131

TTC9C (UniProt Q8N5M4)
inactive: alvocidib -0.035 | Tubastatin A 0.022 | [1] 0.035 | defactinib 0.016 | [2] 0.016 | encorafenib 0.014 | [3] -0.066 | alisertib -0.127 | [4] 0.009 | gefitinib -0.133 | lapatinib -0.001 | pictilisib -0.025 | crizotinib 0.049 | [5] -0.157 | duvelisib -0.056 | gandotinib 0.091 | tozasertib 0.002 | doramapimod -0.028 | bafetinib -0.048 | [6] 0.066
